{
  "source": "the supplement of paper PMC3047530",
  "note": "Some of the results follow. Most values come without repeats; read them as rough.",
  "data": [
    {"test_system": "Geomyces destructans", "assay": "growth inhibition relative to DMSO control; higher = stronger growth inhibition", "conditions": "10 µM; 15 °C; incubation time 10 days", "units": {"growth inhibition": "%"}, "values": [
      {"smiles": "O[C@H]1[C@H](O)[C@@H](O)[C@H](O)[C@@H](O)[C@H]1O", "growth inhibition": -24.5},
      {"smiles": "CCN1CCN(C(=O)NC(C(=O)NC2C(=O)N3C(C(=O)O)=C(CSc4nnnn4C)CSC23)c2ccc(O)cc2)C(=O)C1=O", "note": "(stereo not given)", "growth inhibition": -3.94},
      {"smiles": "C/C=C/c1ccc(OC)cc1", "growth inhibition": -3.77},
      {"smiles": "C=C(C)[C@@H]1CC[C@]2(CO)CC[C@]3(C)[C@H](CC[C@@H]4[C@@]5(C)CC[C@H](O)C(C)(C)[C@@H]5CC[C@]43C)[C@@H]12", "growth inhibition": 3.12},
      {"smiles": "C=C1CCC(C2CC(=O)OC2=O)C(=O)CCC2C1CC2(C)C", "note": "(stereo not given)", "growth inhibition": -6.87},
      {"smiles": "O=C(O)c1cc(=O)c2c(Cl)cc(Cl)cc2[nH]1", "growth inhibition": -1.58},
      {"smiles": "Oc1cccc(O)c1", "growth inhibition": -20.5},
      {"smiles": "Cc1cc(O)cc(C)c1Cl", "growth inhibition": 0.363},
      {"smiles": "CC(N)CCCC(C)(C)O", "note": "(stereo not given)", "growth inhibition": -7.24},
      {"smiles": "CC(C)OC(=O)C(C)(C)Oc1ccc(C(=O)c2ccc(Cl)cc2)cc1", "growth inhibition": -28.9},
      {"smiles": "COc1ccccc1/C=C/C(=O)O", "growth inhibition": -0.393},
      {"smiles": "NC(=O)CC[C@H](N)C(=O)O", "growth inhibition": -2.89},
      {"smiles": "O=c1oc2cc(O)ccc2s1", "growth inhibition": -0.218},
      {"smiles": "CC(=O)Oc1cc(-c2coc3cc(OC(C)=O)c(OC(C)=O)c(OC(C)=O)c3c2=O)cc(OC(C)=O)c1OC(C)=O", "growth inhibition": 2.6},
      {"smiles": "c1coc(CNc2ncnc3[nH]cnc23)c1", "growth inhibition": -18.2},
      {"smiles": "O=C(O)c1cc(/N=N/c2ccc(S(=O)(=O)Nc3ccccn3)cc2)ccc1O", "growth inhibition": -4.54},
      {"smiles": "C[C@@H]1[C@H]2[C@H](O[C@@H]3O[C@H](CO)[C@@H](O)[C@H](O)[C@H]3O)OC=C(C(=O)O)[C@H]2C[C@@H]1O", "growth inhibition": -14.7},
      {"smiles": "CC(=O)O[C@@H]1C=C[C@]2(C)C(C[C@@H](OC(C)=O)[C@]3(C)C4=CC(=O)O[C@H](c5ccoc5)[C@@]4(C)CCC23)C1(C)C", "note": "(stereo not given in full)", "growth inhibition": -0.395},
      {"smiles": "O=C(O)c1cc2cc(Cc3cccnc3)ccc2o1", "growth inhibition": 1.62},
      {"smiles": "N[C@@H](CSCSC[C@H](N)C(=O)O)C(=O)O", "growth inhibition": -1.57},
      {"smiles": "CN/C(=N\\CCSCc1nc[nH]c1C)NC#N", "growth inhibition": 0.983},
      {"smiles": "Cc1cc(C(C)(C)C)c(O)c(C(C)(C)C)c1", "growth inhibition": 3.82},
      {"smiles": "Cn1c(=O)[nH]c2ncn(C)c2c1=O", "growth inhibition": -26.4},
      {"smiles": "O=C(O)c1cn(C2CC2)c2cc(N3CCNCC3)c(F)cc2c1=O", "growth inhibition": -6.38},
      {"smiles": "CC1(C)C(O)CC(=O)C2(C)C1CC(O)C1(C)C2CCC2(C)C(c3ccoc3)OC(=O)C3OC321", "note": "(stereo not given)", "growth inhibition": -4.75},
      {"smiles": "CC(=O)[C@@]1(O)CC[C@H]2[C@@H]3C[C@H](C)C4=CC(=O)C=C[C@]4(C)[C@@]3(F)[C@@H](O)C[C@@]21C", "growth inhibition": 4.06},
      {"smiles": "CCc1nc(N)nc(N)c1-c1ccc(Cl)cc1", "growth inhibition": -5.2},
      {"smiles": "COC(=O)CCCOc1ccc(Cl)cc1Cl", "growth inhibition": -6.37},
      {"smiles": "CC(C)c1c(O)c(-c2cc3c(c(C(C)C)c2O)CCC2C(C)(C)CCC[C@]32C)cc2c1CCC1C(C)(C)CCC[C@]21C", "note": "(stereo not given in full)", "growth inhibition": -4.06},
      {"smiles": "C1CCC(C(CC2CCCCN2)C2CCCCC2)CC1", "note": "(stereo not given)", "growth inhibition": -2.05},
      {"smiles": "O=c1cc(CO)occ1O", "growth inhibition": -9.28},
      {"smiles": "C[C@@H]1CC[C@H]2[C@](C)(CO)[C@@H](O)CC[C@]2(C)[C@@]12CC[C@@](CO)(CCO)O2", "growth inhibition": -6.9},
      {"smiles": "CC1(C)C=Cc2c(cc3occ(-c4ccc5c(c4)OCO5)c(=O)c3c2O)O1", "growth inhibition": 1.65},
      {"smiles": "COc1ccc2c(c1)OC/C(=C/c1ccc(OC)c(OC)c1)C2=O", "growth inhibition": -3.93},
      {"smiles": "O=C(O)C1CC([C@@H]2CCCCN2)CN2CCCCC12", "note": "(stereo not given in full)", "growth inhibition": -1.12},
      {"smiles": "COc1cc(C(=O)NCc2ccc(OCCN(C)C)cc2)cc(OC)c1OC", "growth inhibition": -14.9},
      {"smiles": "COc1c(CC=C(C)C)c2c(c3oc(=O)c(-c4ccc(OC(C)=O)cc4)c(OC(C)=O)c13)C=CC(C)(C)O2", "growth inhibition": -1.02},
      {"smiles": "C[C@](N)(Cc1ccc(O)c(O)c1)C(=O)O", "growth inhibition": -8.53},
      {"smiles": "O=C1c2ccc(O)cc2OC(c2cc(O)c(O)c(O)c2)C1O", "note": "(stereo in doubt)", "growth inhibition": -3.05},
      {"smiles": "C=CC(C1=CC(=O)C(OC)=CC1=O)c1ccccc1", "note": "(stereo not given)", "growth inhibition": 4.18},
      {"smiles": "C[C@H]1c2cccc(O)c2C(=O)C2=C(O)[C@]3(O)C(=O)C(C(N)=O)=C(O)[C@@H](N(C)C)[C@@H]3[C@@H](O)[C@@H]21", "growth inhibition": 3.82},
      {"smiles": "CC1(C)CC2C1(O)CCC1(C)C=CC(O)C21CO", "note": "(stereo not given)", "growth inhibition": -19.1},
      {"smiles": "COc1c(CC(=O)c2cc3c(cc2O)OC(C)(C)C(O)C3)ccc2c1C=CC(C)(C)O2", "note": "(stereo not given)", "growth inhibition": 0.0787},
      {"smiles": "CC[C@H]1C(=O)OC[C@@H]1Cc1cncn1C", "growth inhibition": -0.882},
      {"smiles": "Cc1onc(-c2ccccc2Cl)c1C(=O)N[C@@H]1C(=O)N2[C@@H]1SC(C)(C)[C@@H]2C(=O)O", "growth inhibition": -1.84},
      {"smiles": "CN[C@H](CC(=O)O)C(=O)O", "growth inhibition": -12.5},
      {"smiles": "NS(=O)(=O)c1cc2c(cc1Cl)NC(C(Cl)Cl)NS2(=O)=O", "note": "(stereo not given)", "growth inhibition": -24.9},
      {"smiles": "CCC[C@H]1CC2=C(C[C@@H](CC)CC3=C1C(=O)OC3=O)C(=O)OC2=O", "growth inhibition": -24.3},
      {"smiles": "CN[C@@H]1[C@H](O)[C@H](NC)[C@H]2O[C@@]3(O)C(=O)C[C@@H](C)O[C@H]3O[C@@H]2[C@H]1O", "growth inhibition": -9.36},
      {"smiles": "CC(C)CCC[C@@H](C)[C@H]1CC[C@H]2[C@@H]3CC(=O)[C@H]4C[C@@H](O)CC[C@]4(C)[C@H]3CC[C@]12C", "note": "[5alpha-CHOLESTAN-3beta-OL-6-ONE]", "growth inhibition": -3.46},
      {"smiles": "NCCCC(=O)O", "note": "[gamma-AMINOBUTYRIC ACID]", "growth inhibition": -14},
      {"smiles": "CC(=O)O[C@@H]1CC2C(C)(C)C(=O)[C@@H]3O[C@@H]3[C@]2(C)C2CC[C@]3(C)C(=CC(=O)O[C@H]3c3ccoc3)[C@@]21C", "note": "(stereo partly drawn) [1 (2)alpha-EPOXYDEOXYDIHYDROGEDUNIN]", "growth inhibition": 1.89},
      {"smiles": "NC(=O)NCC(N)C(=O)O", "note": "(stereo not given)", "growth inhibition": 5.16},
      {"smiles": "CC(=O)Oc1cc(OC(C)=O)c2c(c1)O[C@H](c1ccc(OC(C)=O)c(OC(C)=O)c1)[C@@H](OC(C)=O)C2", "growth inhibition": -3.24},
      {"smiles": "N=c1[nH]c(=O)c2[nH]c(=O)c(=O)[nH]c2[nH]1", "growth inhibition": -9.66},
      {"smiles": "C[C@@H]1NC(=O)[C@@H](N)CNC(=O)[C@H](C2CCNC(=N)N2)NC(=O)/C(=C/NC(N)=O)NC(=O)[C@H](CNC(=O)CC(N)CCCN)NC1=O.N=C1NCC[C@H]([C@@H]2NC(=O)/C(=C/NC(N)=O)NC(=O)[C@H](CNC(=O)C[C@@H](N)CCCN)NC(=O)[C@H](CO)NC(=O)[C@@H](N)CNC2=O)N1", "growth inhibition": -4.77},
      {"smiles": "C=C[C@@](C)(O)CCC1C(=C)CCC2[C@@](C)(CO)CCC[C@]12C", "note": "(stereo not given in full)", "growth inhibition": -18.4},
      {"smiles": "NC/C=C/C(=O)O", "growth inhibition": -34.3},
      {"smiles": "C[n+]1c2cc(N)ccc2cc2ccc(N)cc21", "growth inhibition": -24.9},
      {"smiles": "COc1ccc(-c2coc3cc(OC)ccc3c2=O)cc1", "growth inhibition": 17.6}
    ]}
  ]
}
